Test results as given in doi:10.1101/2025.11.23.689998.
No constants are given. Whether binding was seen depends on the method and setting. In cells and extracts the contact can be indirect. Here binding means that the protein was enriched with, or labelled near, the bait; the list need not be complete.

Sequences of proteins named here, by UniProt entry; tags and fusion partners are left off.
UniProt Q9FIJ0: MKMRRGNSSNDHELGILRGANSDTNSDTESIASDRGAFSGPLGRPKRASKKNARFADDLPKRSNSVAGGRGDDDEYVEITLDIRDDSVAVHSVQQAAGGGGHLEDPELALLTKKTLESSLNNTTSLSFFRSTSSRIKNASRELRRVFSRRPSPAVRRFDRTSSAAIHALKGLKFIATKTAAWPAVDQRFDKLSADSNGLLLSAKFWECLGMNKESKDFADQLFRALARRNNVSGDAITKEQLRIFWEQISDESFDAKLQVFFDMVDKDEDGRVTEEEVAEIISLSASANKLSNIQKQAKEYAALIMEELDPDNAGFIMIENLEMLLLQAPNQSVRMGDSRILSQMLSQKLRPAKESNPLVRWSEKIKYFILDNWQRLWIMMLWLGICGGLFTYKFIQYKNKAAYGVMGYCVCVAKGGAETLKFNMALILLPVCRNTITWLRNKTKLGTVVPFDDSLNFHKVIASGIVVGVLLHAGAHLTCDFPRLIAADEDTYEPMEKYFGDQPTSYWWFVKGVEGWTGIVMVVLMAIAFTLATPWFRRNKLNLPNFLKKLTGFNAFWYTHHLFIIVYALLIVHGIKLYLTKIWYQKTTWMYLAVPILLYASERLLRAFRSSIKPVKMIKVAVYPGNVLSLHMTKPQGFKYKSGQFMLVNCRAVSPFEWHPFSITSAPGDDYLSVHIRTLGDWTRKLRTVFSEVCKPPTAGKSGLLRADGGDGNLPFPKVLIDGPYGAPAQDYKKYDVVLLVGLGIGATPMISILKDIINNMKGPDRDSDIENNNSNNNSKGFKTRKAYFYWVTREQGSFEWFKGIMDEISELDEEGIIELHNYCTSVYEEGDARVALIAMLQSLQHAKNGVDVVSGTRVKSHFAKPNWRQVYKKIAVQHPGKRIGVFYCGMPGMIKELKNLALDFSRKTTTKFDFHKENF
UniProt Q43125: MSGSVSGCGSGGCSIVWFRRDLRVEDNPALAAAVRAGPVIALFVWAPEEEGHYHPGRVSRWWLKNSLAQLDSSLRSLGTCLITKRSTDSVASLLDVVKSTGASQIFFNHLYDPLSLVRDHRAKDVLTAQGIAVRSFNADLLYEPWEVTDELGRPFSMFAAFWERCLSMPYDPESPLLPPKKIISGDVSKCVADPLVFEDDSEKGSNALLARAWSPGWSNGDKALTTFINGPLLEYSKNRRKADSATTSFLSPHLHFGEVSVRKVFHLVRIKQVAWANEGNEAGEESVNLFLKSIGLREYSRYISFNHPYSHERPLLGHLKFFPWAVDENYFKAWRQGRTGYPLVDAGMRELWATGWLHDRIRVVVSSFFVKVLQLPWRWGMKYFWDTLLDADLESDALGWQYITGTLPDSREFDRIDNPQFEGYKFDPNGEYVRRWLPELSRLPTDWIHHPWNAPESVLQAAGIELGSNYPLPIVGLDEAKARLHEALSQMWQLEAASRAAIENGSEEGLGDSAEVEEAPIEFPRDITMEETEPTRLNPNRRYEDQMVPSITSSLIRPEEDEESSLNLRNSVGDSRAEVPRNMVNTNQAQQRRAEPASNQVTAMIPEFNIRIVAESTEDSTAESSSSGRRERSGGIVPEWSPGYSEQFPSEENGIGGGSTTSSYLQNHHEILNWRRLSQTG
UniProt F4I3M3: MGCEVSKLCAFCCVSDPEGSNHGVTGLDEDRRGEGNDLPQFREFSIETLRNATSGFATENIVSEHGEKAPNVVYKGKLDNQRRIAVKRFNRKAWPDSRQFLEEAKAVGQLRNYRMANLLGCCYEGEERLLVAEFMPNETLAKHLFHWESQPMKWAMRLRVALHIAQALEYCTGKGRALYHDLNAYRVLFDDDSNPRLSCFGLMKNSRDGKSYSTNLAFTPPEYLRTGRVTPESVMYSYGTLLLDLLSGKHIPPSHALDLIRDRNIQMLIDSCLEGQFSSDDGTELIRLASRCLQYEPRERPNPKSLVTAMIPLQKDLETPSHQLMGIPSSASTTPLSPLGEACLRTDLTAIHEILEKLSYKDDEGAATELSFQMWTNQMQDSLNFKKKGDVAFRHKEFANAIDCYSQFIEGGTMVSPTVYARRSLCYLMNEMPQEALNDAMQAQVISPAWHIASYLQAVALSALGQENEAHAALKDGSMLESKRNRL
UniProt Q0WNJ6: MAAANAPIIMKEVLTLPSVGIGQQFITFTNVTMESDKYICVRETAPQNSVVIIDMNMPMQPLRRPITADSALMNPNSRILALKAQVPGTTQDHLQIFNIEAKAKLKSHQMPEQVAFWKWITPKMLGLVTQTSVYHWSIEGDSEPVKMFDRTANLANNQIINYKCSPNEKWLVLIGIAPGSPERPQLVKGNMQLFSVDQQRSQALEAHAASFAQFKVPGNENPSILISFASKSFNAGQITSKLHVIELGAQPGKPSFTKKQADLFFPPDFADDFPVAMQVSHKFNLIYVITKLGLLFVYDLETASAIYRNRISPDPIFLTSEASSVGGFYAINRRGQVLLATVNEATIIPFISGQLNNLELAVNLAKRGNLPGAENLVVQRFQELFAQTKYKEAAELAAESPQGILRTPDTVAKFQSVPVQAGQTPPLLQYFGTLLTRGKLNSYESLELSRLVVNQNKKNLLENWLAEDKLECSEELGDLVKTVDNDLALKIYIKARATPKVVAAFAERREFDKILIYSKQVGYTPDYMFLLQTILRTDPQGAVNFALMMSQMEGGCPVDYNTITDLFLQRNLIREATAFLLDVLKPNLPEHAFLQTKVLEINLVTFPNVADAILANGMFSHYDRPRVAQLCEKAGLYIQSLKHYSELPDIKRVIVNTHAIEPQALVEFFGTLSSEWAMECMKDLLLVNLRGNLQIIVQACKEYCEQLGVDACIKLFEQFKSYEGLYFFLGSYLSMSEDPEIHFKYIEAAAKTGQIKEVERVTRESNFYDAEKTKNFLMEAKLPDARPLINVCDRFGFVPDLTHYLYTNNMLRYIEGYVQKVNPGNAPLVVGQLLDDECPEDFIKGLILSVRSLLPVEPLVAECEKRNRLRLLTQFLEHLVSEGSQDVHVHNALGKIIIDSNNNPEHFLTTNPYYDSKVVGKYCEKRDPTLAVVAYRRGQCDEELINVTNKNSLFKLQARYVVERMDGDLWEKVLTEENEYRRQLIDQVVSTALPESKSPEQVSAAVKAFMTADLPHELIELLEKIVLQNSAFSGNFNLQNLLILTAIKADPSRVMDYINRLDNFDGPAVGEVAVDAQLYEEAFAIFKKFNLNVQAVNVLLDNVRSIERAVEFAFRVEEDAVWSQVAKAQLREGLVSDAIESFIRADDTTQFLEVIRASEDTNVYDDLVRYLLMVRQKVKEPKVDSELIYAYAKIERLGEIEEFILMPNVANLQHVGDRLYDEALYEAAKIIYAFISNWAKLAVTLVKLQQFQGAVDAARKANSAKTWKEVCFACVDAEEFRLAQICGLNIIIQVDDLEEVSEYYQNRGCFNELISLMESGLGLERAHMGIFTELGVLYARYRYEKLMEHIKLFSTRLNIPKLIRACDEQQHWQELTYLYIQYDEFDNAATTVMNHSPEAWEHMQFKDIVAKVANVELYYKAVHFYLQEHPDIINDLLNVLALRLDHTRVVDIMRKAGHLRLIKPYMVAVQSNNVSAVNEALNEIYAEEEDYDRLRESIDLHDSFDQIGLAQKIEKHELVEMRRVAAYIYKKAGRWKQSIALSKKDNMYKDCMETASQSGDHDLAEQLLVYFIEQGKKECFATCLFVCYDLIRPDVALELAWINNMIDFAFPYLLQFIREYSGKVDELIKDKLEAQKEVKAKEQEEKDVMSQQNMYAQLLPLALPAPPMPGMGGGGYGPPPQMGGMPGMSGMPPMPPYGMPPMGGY
UniProt Q0WLB5: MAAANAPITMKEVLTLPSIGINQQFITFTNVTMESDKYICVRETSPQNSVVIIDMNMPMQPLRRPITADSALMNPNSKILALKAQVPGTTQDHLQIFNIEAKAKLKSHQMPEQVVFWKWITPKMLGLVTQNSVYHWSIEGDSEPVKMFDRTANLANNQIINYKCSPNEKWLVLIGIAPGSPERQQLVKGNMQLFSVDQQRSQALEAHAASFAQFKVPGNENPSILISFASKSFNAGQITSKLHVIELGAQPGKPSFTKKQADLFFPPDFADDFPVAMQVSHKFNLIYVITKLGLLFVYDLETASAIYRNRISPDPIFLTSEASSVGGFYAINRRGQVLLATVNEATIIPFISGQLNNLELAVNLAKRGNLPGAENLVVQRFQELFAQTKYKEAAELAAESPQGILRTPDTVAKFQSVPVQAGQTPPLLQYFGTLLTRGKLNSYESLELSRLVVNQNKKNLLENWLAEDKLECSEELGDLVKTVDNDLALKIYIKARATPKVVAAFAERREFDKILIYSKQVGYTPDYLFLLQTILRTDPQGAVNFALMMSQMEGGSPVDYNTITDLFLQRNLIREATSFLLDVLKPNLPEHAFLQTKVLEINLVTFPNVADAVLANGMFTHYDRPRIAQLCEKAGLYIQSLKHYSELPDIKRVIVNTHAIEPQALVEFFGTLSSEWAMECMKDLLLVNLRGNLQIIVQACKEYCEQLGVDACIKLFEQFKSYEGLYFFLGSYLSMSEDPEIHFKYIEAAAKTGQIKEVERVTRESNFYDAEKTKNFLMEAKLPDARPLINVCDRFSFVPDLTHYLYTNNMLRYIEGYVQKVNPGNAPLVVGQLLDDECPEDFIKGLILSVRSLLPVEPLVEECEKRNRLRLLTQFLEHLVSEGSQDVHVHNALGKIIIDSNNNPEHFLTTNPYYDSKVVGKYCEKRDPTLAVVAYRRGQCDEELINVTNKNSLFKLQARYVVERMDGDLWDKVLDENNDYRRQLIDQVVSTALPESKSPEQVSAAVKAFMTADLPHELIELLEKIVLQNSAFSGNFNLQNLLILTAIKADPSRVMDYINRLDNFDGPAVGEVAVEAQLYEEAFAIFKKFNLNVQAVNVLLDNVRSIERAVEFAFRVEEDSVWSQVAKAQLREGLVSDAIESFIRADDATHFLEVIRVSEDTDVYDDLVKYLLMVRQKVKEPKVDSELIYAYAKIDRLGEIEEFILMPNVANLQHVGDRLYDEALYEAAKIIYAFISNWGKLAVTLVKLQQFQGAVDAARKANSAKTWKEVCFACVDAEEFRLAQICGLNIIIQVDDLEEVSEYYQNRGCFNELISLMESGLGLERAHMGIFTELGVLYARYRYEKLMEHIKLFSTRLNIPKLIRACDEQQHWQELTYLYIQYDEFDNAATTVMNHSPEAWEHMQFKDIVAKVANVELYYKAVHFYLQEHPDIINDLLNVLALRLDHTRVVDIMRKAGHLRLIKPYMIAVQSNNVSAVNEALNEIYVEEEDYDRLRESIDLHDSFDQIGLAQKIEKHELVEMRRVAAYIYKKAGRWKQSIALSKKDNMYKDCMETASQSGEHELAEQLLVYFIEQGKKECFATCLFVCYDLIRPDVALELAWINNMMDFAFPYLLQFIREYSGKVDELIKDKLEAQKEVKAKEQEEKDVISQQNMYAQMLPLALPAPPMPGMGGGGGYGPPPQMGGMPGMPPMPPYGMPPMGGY

Assays:
[1] = molecular target: phyB-miniTurbo (phyB CDS - miniTurbo-sCFP3A-3FLAG) (Arabidopsis thaliana) (UniProt P14713); experiment: proximity labelling
[2] = molecular target: HA-tagged RBOHD (RESPIRATORY BURST OXIDASE PROTEIN D) (Arabidopsis thaliana) (UniProt Q9FIJ0); experiment: affinity purification with mass spectrometry

Substance	binding [2]	binding [1]
CRYPTOCHROME 1 (from UniProt Q43125 1-681)		binds
SERINE/THREONINE-PROTEIN KINASE BSK7 (At1g63500) (from UniProt F4I3M3 1-487) (enzyme)	binds	
RBOHD (RESPIRATORY BURST OXIDASE PROTEIN D) (from UniProt Q9FIJ0 1-921)		binds
LEUCINE-RICH REPEAT (LRR) like receptor At5g07910 (from UniProt F4K9I0)	binds	

Continued, in another order:

binding [2]	Substance	binding [1]
binds	protein involved in RBOHD recycling via clathrin mediated endocytosis (At3g11130) (from UniProt Q0WNJ6 1-1705)	
binds	BRASSINOSTEROID … 1 (from UniProt O22476 24-1196) (receptor)	
binds	protein involved in RBOHD recycling via clathrin mediated endocytosis (At3g08530) (from UniProt Q0WLB5 1-1703)	
